Experimental data: PubChem BioAssay AID1259275 (Sanger Institute, 2017)
The whole screen tested 794 reagents; below is a part drawn at random. Over the whole deposit, 13 (1.6%) got an active call. 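Calls mark knock-downs lethal by themselves, not drug synergy; drugs went in a day after transfection, with DMSO as vehicle.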 Viability is capped at 1. Further read-outs or replicates are left out here. Not given: the amount of reagent, the time to read-out.

Purpose: 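Knock-downs that cut viability on their own or combined with BYL719, cetuximab or trametinib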 (primary screen)
System: COLO320HSR human colorectal cancer cells
Knock-down reagent: siRNA pool against human genes
Challenge: anchor drug added one day after transfection: BYL719 at 1 µM, cetuximab at 5 µg/ml or trametinib at 10 nM; DMSO as vehicle arm
Measurement: 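Viability averaged over replicates as a fraction of the non-targeting pool, a robust z-score for knock-down alone, and synergy scores with BYL719 (1 µM), cetuximab (5 µg/ml) or trametinib (10 nM)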
Reading the numbers: robust z-score, siRNA alone: higher = more viable cells; strongly negative means essential; viability, knock-down alone (DMSO): higher = more viable cells
Active means: 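Essential means the knock-down by itself gives a robust z-score lower than -3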
Calls: active = essential (siRNA alone); inactive = no change (siRNA alone)

MAPK4 showed robust z-score, siRNA alone -0.177; viability, knock-down alone (DMSO) (fraction of control) = 0.918; inactive.
For DYRK3, the values are robust z-score, siRNA alone 0.655; viability, knock-down alone (DMSO) (fraction of control) = 0.994; inactive.
After knock-down of PANK1, the record shows robust z-score, siRNA alone 0.498; viability, knock-down alone (DMSO) (fraction of control) = 0.979; inactive.
For PTK2, the entry reads robust z-score, siRNA alone -0.0498; viability, knock-down alone (DMSO) (fraction of control) = 0.93; inactive.
LCK scored robust z-score, siRNA alone -0.209; viability, knock-down alone (DMSO) (fraction of control) = 0.916; inactive.
MYLK4 showed robust z-score, siRNA alone 0.726; viability, knock-down alone (DMSO) (fraction of control) = 1; inactive.
Knock-down of AK3 resulted in: robust z-score, siRNA alone 0.726; viability, knock-down alone (DMSO) (fraction of control) = 1; inactive.
MAST3 showed robust z-score, siRNA alone -0.653; viability, knock-down alone (DMSO) (fraction of control) = 0.875; inactive.
Knock-down of NRAS gave: robust z-score, siRNA alone 0.527; viability, knock-down alone (DMSO) (fraction of control) = 0.982; inactive.
Against STK25, the values are robust z-score, siRNA alone 0.726; viability, knock-down alone (DMSO) (fraction of control) = 1; inactive.
Knock-down of SYK came out at: robust z-score, siRNA alone -1.01; viability, knock-down alone (DMSO) (fraction of control) = 0.843; inactive.
For DGKD, the entry reads robust z-score, siRNA alone 0.171; viability, knock-down alone (DMSO) (fraction of control) = 0.95; inactive.
Against MKNK2 the deposit lists robust z-score, siRNA alone 0.511; viability, knock-down alone (DMSO) (fraction of control) = 0.981; inactive.

3 entries from above, set out differently:
{"gene":"MAPK4","robust z-score, siRNA alone":-0.177,"viability, knock-down alone (DMSO) (fraction of control)":0.918,"call":"inactive"}
{"gene":"DYRK3","robust z-score, siRNA alone":0.655,"viability, knock-down alone (DMSO) (fraction of control)":0.994,"call":"inactive"}
{"gene":"PANK1","robust z-score, siRNA alone":0.498,"viability, knock-down alone (DMSO) (fraction of control)":0.979,"call":"inactive"}

More reagents:
BRDT scored robust z-score, siRNA alone 0.16; viability, knock-down alone (DMSO) (fraction of control) = 0.949; inactive.
Against MAP2K6, the values are robust z-score, siRNA alone 0.0225; viability, knock-down alone (DMSO) (fraction of control) = 0.936; inactive.
LYN scored robust z-score, siRNA alone -0.0237; viability, knock-down alone (DMSO) (fraction of control) = 0.932; inactive.
With knock-down of HCK, the screen gave robust z-score, siRNA alone 0.07; viability, knock-down alone (DMSO) (fraction of control) = 0.941; inactive.
After knock-down of AXL, the record shows robust z-score, siRNA alone 0.726; viability, knock-down alone (DMSO) (fraction of control) = 1; inactive.
With knock-down of JAK1, the record shows robust z-score, siRNA alone 0.726; viability, knock-down alone (DMSO) (fraction of control) = 1; inactive.
With knock-down of ATP23, the screen gave robust z-score, siRNA alone 0.726; viability, knock-down alone (DMSO) (fraction of control) = 1; inactive.
Depletion of WNK2 came out at: robust z-score, siRNA alone 0.726; viability, knock-down alone (DMSO) (fraction of control) = 1; inactive.
GUCY2C scored robust z-score, siRNA alone 0.726; viability, knock-down alone (DMSO) (fraction of control) = 1; inactive.
Against DYRK1B the deposit lists robust z-score, siRNA alone -0.171; viability, knock-down alone (DMSO) (fraction of control) = 0.919; inactive.
CDK1 scored robust z-score, siRNA alone 0.726; viability, knock-down alone (DMSO) (fraction of control) = 1; inactive.
For PIM2, the values are robust z-score, siRNA alone 0.726; viability, knock-down alone (DMSO) (fraction of control) = 1; inactive.
After knock-down of TSSK6, the record shows robust z-score, siRNA alone -1.26; viability, knock-down alone (DMSO) (fraction of control) = 0.821; inactive.
MAP3K13 showed robust z-score, siRNA alone 0.393; viability, knock-down alone (DMSO) (fraction of control) = 0.97; inactive.
With knock-down of MAP4K2, the screen gave robust z-score, siRNA alone 0.398; viability, knock-down alone (DMSO) (fraction of control) = 0.97; inactive.
